This note sets out measurements from article PMC10131429.

By UniProt entry, the sequences of proteins in these tests, tags left out.
UniProt Q04206: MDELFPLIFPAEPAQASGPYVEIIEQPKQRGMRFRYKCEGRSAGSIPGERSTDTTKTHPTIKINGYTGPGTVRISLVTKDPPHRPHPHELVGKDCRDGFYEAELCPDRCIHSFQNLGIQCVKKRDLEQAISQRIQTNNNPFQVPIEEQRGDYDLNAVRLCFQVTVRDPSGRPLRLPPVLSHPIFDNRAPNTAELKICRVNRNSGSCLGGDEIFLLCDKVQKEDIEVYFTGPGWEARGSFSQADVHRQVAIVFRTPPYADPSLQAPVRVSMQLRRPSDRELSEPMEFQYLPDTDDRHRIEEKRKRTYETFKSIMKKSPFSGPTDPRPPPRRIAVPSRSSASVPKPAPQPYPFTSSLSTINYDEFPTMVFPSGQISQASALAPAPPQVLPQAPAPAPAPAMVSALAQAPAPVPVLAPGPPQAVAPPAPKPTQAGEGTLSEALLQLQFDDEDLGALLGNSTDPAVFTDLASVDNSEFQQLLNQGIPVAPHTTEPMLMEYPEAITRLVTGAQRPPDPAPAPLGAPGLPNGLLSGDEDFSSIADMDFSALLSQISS
UniProt O43143: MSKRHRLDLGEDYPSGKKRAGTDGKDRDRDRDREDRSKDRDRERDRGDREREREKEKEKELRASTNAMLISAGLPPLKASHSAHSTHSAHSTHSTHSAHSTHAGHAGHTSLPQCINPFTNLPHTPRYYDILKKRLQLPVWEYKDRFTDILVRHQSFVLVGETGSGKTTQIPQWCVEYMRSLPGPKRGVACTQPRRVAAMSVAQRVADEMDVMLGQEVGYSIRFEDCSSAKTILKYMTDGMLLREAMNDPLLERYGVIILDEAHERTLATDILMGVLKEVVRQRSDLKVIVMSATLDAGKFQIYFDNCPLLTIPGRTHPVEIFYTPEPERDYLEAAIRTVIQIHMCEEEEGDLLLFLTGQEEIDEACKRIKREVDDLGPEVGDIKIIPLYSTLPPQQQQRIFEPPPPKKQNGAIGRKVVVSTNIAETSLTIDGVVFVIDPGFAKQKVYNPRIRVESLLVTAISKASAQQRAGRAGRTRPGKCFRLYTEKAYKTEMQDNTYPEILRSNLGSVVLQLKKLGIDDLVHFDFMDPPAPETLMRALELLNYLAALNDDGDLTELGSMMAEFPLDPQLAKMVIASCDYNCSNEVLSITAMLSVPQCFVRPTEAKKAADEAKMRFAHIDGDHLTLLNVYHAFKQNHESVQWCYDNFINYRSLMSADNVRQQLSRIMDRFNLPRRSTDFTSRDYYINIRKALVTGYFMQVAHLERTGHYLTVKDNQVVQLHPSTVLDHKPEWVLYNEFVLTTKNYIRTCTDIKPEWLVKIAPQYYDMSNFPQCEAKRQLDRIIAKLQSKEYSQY

No constants are given. Whether binding was seen depends on the method and setting. In cells and extracts the contact can be indirect. Some entries that bind do so weakly or less than the wild type.

This test deals with NF-κB p65 (human (endogenous in BC cell lines)) (UniProt Q04206). In words: co-IP; endogenous proteins in BC cells lysed by RIPA; lysate with anti-DHX15 or anti-NF-κB p65 at 4 °C overnight, Protein A/G PLUS Agarose, western blotting; also done after inhibition of circRNF10 (si-circRNF10), where the interaction increased. In general terms: In western blotting, separated proteins are transferred to a membrane and probed.

On to “DEAH (Asp-Glu-Ala-His) box helicase 15 (from UniProt O43143 1-795)”, for which the binding entry is on record as “binds”.
